{"source": "paper PMC9603373", "about": "(Microbiology Spectrum, 2022)", "key": {"[1]": {"tested_on": "Enterococcus faecium isolate NTUH688", "settings": "Sensititre GPN3F"}, "[2]": {"tested_on": "Enterococcus faecium isolate NTUH664", "settings": "Sensititre GPN3F"}}, "data": [{"compound": "CN[C@H](CC(C)C)C(=O)N[C@H]1C(=O)N[C@@H](CC(N)=O)C(=O)N[C@H]2C(=O)N[C@H]3C(=O)N[C@H](C(=O)N[C@H](C(=O)O)c4cc(O)cc(O)c4-c4cc3ccc4O)[C@H](O)c3ccc(c(Cl)c3)Oc3cc2cc(c3O[C@@H]2O[C@H](CO)[C@@H](O)[C@H](O)[C@H]2O[C@H]2C[C@](C)(N)[C@H](O)[C@H](C)O2)Oc2ccc(cc2Cl)[C@H]1O", "note": "[vancomycin]", "values": [{"measurement": "vancomycin MIC", "setting": "[1]", "value": "> 128", "unit": "µg/mL"}, {"measurement": "vancomycin MIC", "setting": "[2]", "value": "> 128", "unit": "µg/mL"}]}]}
